Some of the results follow.

The target of the experiment is T1, OsSMF1 (Oryza sativa, UniProt Q6ZLB0 1-436).
T1 sequence: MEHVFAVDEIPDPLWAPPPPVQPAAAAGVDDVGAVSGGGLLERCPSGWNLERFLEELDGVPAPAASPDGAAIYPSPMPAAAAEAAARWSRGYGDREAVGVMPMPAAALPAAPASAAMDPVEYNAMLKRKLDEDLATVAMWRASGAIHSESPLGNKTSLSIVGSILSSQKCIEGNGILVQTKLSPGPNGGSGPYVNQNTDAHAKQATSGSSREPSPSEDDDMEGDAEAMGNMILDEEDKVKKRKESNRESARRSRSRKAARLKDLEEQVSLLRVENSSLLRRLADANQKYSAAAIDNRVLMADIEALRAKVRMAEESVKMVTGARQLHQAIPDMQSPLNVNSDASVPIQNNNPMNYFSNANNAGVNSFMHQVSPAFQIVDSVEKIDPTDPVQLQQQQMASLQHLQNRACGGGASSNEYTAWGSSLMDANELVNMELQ
The experiment in a line: protein-binding microarray (RPBM); PBS, 2% BSA, 51.3 ng/ul salmon testes DNA, 50 uM zinc acetate, 200 nM TF, 25 C, 1 h; high values mean tight binding. The following applies: protein: recombinant; tags: N-terminal polyhistidine and DsRed monomer fusion (pET32a); chain copies: 2; label: CyDye5-dUTP incorporated in the synthesized complementary strand; 3' TTTTT single-stranded linker to array surface; dsDNA, one strand shown. The essentials:
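Polyhistidine-tagged DsRed fusions of transcription factors, joined at the N-terminus, were expressed in E. coli BL21-CodonPlus and isolated on Ni–NTA. They were incubated at 200 nM for 1 h at 25 °C on a custom Agilent array, double-stranded and BSA-blocked, in PBS with 2% BSA, salmon testes DNA and 50 µM zinc acetate. The binding signal is per-feature fluorescence intensity (arbitrary units) read on an Axon 4000B scanner after washing.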
For “CACCCGTTTCCGACGGCGATGGCGAGACCCCGTGTCGCCGCGGAGTCACCTAGTGCAG”, the binding signal was 3710 fluorescence intensity (a.u.).
Regarding “GTAGCGGCTGCGGCGCTCCAGCTCCTCGGAGGCCCGGTCCCGGAGTCACCTAGTGCAG”, the binding signal was 3790 fluorescence intensity (a.u.).
Regarding “CGCCCTCGCTTCCTCTCCTGGATCGAGATCGCGTCATCGCCGGAGTCACCTAGTGCAG”, the binding signal is 4900 fluorescence intensity (a.u.).
Turning to “GGTCGTATGATGTAAGATCCAGGAAATTGTTCTTGTTGCCCGGAGTCACCTAGTGCAG”, the binding signal was 3160 fluorescence intensity (a.u.).
As to “AATCCTACGTCTCCAATCCTACGTGTGAAATCATCCGGATCGGAGTCACCTAGTGCAG”, the binding signal was 7120 fluorescence intensity (a.u.).
Take “AAAACTTGCAACTGCAATTCATGTCAATTTGCCACATCACCGGAGTCACCTAGTGCAG”: the binding signal was 13200 fluorescence intensity (a.u.).
Turning to “AATATTGTTAACCCTATGACGTTGCATGTGGATTTTGCTGCGGAGTCACCTAGTGCAG”, the binding signal is 10100 fluorescence intensity (a.u.).
In the case of “AGAAATCAATGACAAAACATTTGTACCGGAGGCGGTAATACGGAGTCACCTAGTGCAG”, the binding signal was 3220 fluorescence intensity (a.u.).
For “TCTAAAGAAATTTTCTCTGTCAATAGATGATTCCATCACCCGGAGTCACCTAGTGCAG”, the binding signal was 6070 fluorescence intensity (a.u.).
As for “AAACAAGCACAACGTTTAGCCACGTCATCAAAATAGTTTCCGGAGTCACCTAGTGCAG”, the binding signal was 17700 fluorescence intensity (a.u.).
For the sequence “AGCACTGCCCACACTGCCAAAATATGCCATATGTTATCCTCGGAGTCACCTAGTGCAG”, the binding signal was 3220 fluorescence intensity (a.u.).
The same measure for “GGACTCAGCGTCGCCGCTCCTTGGGCCACGTCAGCGCTCACGGAGTCACCTAGTGCAG”: 35600 fluorescence intensity (a.u.); for “GCACAGCCTCACAGGACGAGCCGCCGCTCACCGCCGGCACCGGAGTCACCTAGTGCAG”: 23300 fluorescence intensity (a.u.).
In the case of “GTGCGTGGGTGCGTGACTGCGTATAGGGGCCACGACCCGCCGGAGTCACCTAGTGCAG”, the binding signal was 3180 fluorescence intensity (a.u.).
“GAATTACATTGCATTGTTCGTTAAAGAGTAGATTCATACACGGAGTCACCTAGTGCAG”: the binding signal is 29200 fluorescence intensity (a.u.).
As for “CATCAATTCAAGTAGATTCAAACATAGAGTGGAATTGGACCGGAGTCACCTAGTGCAG”, the binding signal was 32000 fluorescence intensity (a.u.).
With “CGTACTCACCACCTGCCCCTTGTCATCGTCCTCCTCAAGGCGGAGTCACCTAGTGCAG”, the binding signal was 4190 fluorescence intensity (a.u.).
For “AGTAGCGGCGTGTACATGCGCCAACTGCCCACGCGGCCGCCGGAGTCACCTAGTGCAG”, the binding signal was 4510 fluorescence intensity (a.u.).
On to “TGTACGCCACTTAATTTTGCTCGTAACATACATTGACAATCGGAGTCACCTAGTGCAG”, for which the binding signal is 3160 fluorescence intensity (a.u.).
On to “CATTTCATATCAGAAGTGTGATCACTGTAACCCGCGGCGCCGGAGTCACCTAGTGCAG”, for which the binding signal was 64500 fluorescence intensity (a.u.).
In the case of “GGCCGTGACGGCGTGTCGTCCGCGTGTGCGCGCGATATCTCGGAGTCACCTAGTGCAG”, the binding signal is 5080 fluorescence intensity (a.u.).
In the case of “GAGTCAGGTAGACGCGCCGCGGCGTGGCACGGAGGAGACACGGAGTCACCTAGTGCAG”, the binding signal was 3300 fluorescence intensity (a.u.).
On to “CGCATCCACTGCGGCGCGTCCACGCGTACGCCGCGGCAGCCGGAGTCACCTAGTGCAG”, for which the binding signal was 5740 fluorescence intensity (a.u.).
On to “ACATAATAGACTATTAGAGCACCCGCAATAGTAAAGTAAGCGGAGTCACCTAGTGCAG”, for which the binding signal was 23000 fluorescence intensity (a.u.).
As for “GATGTTTCAACACGTTGGAAGTATTTGATCCGACCCTATTCGGAGTCACCTAGTGCAG”, the binding signal was 4010 fluorescence intensity (a.u.).
Then “ATAATTATTTGTTTTCAGTCATGTATCTTCATCTTATACACGGAGTCACCTAGTGCAG”, with 29600 fluorescence intensity (a.u.); and “CAATAATAGGATTAGAATGAAGAAAGCACCCCTGAGCTTGCGGAGTCACCTAGTGCAG”, with 3420 fluorescence intensity (a.u.); and “ATTAGCTTTCTTTCATTTTCTCCCTCTGCGAGCAGAGGAACGGAGTCACCTAGTGCAG”, with 3180 fluorescence intensity (a.u.).
Then “CCTGCGTGCGTGCCAACGTGGCCGTGTAAAAGCCGCCTCACGGAGTCACCTAGTGCAG”, with 7480 fluorescence intensity (a.u.).
The same measure for “CGTACGTATCTCTTGTTCTCCTCGCGTCAGCGACCAACGGCGGAGTCACCTAGTGCAG”: 5010 fluorescence intensity (a.u.); for “ACAACCCACTCCCACCTAGCTCAACCTCACGCTCAAGCTGCGGAGTCACCTAGTGCAG”: 3440 fluorescence intensity (a.u.).
As to “CATTCCCCTCTCCCCAATTTACCATACACACATGGATGTACGGAGTCACCTAGTGCAG”, the binding signal is 3640 fluorescence intensity (a.u.).
The same measure for “GTGCTCTTTAATTATCACTTTGTGCGCACTTTTCTTTGATCGGAGTCACCTAGTGCAG”: 33900 fluorescence intensity (a.u.); for “CAAACTTCTCACACACACGCTGACGCCTGAGTGCTGACCGCGGAGTCACCTAGTGCAG”: 3330 fluorescence intensity (a.u.); for “GGTGCATGCACGCACGCACGGCATTGCAGAGCCCGTGACGCGGAGTCACCTAGTGCAG”: 3790 fluorescence intensity (a.u.).
With “CATCTGGCCCGTGACACGCGTGCCACCATGGCGGTTCCACCGGAGTCACCTAGTGCAG”, the binding signal was 7090 fluorescence intensity (a.u.).
Turning to “TAGCCACGGCGACGGTGGAAGGGCGGCGAACTACACGTGCCGGAGTCACCTAGTGCAG”, the binding signal was 3610 fluorescence intensity (a.u.).
For “ATCTGCTTTGTGAGGCACATGAAGCTGGAGATATCTGTCACGGAGTCACCTAGTGCAG”, the binding signal is 4740 fluorescence intensity (a.u.).
Consider “TCTGATTTAACTGCATTGCATTTGTGTCATTGACATGTGGCGGAGTCACCTAGTGCAG”, for which the binding signal was 4280 fluorescence intensity (a.u.).
Take “GGCGAGCGGCAAATCCAAATCGGCACACGAGCGAGACTGCCGGAGTCACCTAGTGCAG”: the binding signal was 3410 fluorescence intensity (a.u.).
Regarding “ATTCTCTGTGTTTCGGATGACGTCCCATGACAATTCACTGCGGAGTCACCTAGTGCAG”, the binding signal was 3830 fluorescence intensity (a.u.).
The same measure for “TGGATGTTCGAGATTCGTCCACGTCACCATGAGTTAAATTCGGAGTCACCTAGTGCAG”: 11000 fluorescence intensity (a.u.); for “GCTTTGGCGTCTCTAAATGACACGATTATAATCAACTTACCGGAGTCACCTAGTGCAG”: 3200 fluorescence intensity (a.u.).
For “TCGTCGCCCACTGCCACCGCTGACGTCACCGCACTCTCGCCGGAGTCACCTAGTGCAG”, the binding signal is 30500 fluorescence intensity (a.u.).
Then “GCGCACGGCACAGGGGCGGCACGCGACTCCTCCCGTCCTCCGGAGTCACCTAGTGCAG”, with 35600 fluorescence intensity (a.u.); and “GCGCCGCTCATCTCCCCACCGCCCACGTGCTGCTCCTCCACGGAGTCACCTAGTGCAG”, with 3550 fluorescence intensity (a.u.).
For the sequence “TGGATTTTCCAGAGGCCCACGTAGACGAATCAGCTGGGACCGGAGTCACCTAGTGCAG”, the binding signal is 4930 fluorescence intensity (a.u.).
As for “ATATTTGCCAACTCATGGATGCCCATTTACCCACAACATTCGGAGTCACCTAGTGCAG”, the binding signal is 5870 fluorescence intensity (a.u.).
Consider “TACTTCATATATATGTAACCCAAAATCCCTTGTAGTATGGCGGAGTCACCTAGTGCAG”, for which the binding signal was 3510 fluorescence intensity (a.u.).
In the case of “TCTTGCACGACACAACTGACTTGGCCCTCATGTCAACTGTCGGAGTCACCTAGTGCAG”, the binding signal was 3300 fluorescence intensity (a.u.).
With “CTCCGTTATCAAATATCGTGTCTCGTTGTCGTCATCATATCGGAGTCACCTAGTGCAG”, the binding signal was 3800 fluorescence intensity (a.u.).
On to “CTCCGTCGTCGTCATCATCCACTCTCCTCTCCCCTGGTTTCGGAGTCACCTAGTGCAG”, for which the binding signal is 9770 fluorescence intensity (a.u.).
As for “TAAATGACATCGTTGCATACCTCACATTAATTCAACTACACGGAGTCACCTAGTGCAG”, the binding signal is 11900 fluorescence intensity (a.u.).
On to “CTGTCTGTATTGAGATCACATGCAGTCACTACTATGACTGCGGAGTCACCTAGTGCAG”, for which the binding signal was 3190 fluorescence intensity (a.u.).

The values above are taken from paper PMC7819943, “Rice protein-binding microarrays: a tool to detect cis-acting elements near promoter regions in rice”.
